Experimental data reported in PMC6736568, “Discovery of Novel Anti-cryptosporidial Activities From Natural Products by in vitro High-Throughput Phenotypic Screening” (Frontiers in Microbiology, 2019).

Tested on: Cryptosporidium parvum
Assay: qRT-PCR assay of the growth of C. parvum in vitro in HCT-8 host cells (primary and secondary screening, EC50)
Format: cell-based
Conditions: primary screening at 10 uM

In the case of NCCCC(=O)O [gamma-AMINOBUTYRIC ACID], the inhibition at 10 µM is reported as -17.1%.
